The target in this test is ITCH (on the domain array) (UniProt Q96J02). Briefly: peptide or protein array; solid phase SH3 and WW domain arrays (Panomics) hybridised with 10-20 μg/ml purified His-KLF11 TRD3; TRD3/bound array protein ratio 5:1; both purified.

By UniProt entry, the sequences of proteins in these tests, tags left out. Where a name states a change or a piece, a line headed by the entry shows the natural chain unless it says otherwise.
UniProt Q96J02: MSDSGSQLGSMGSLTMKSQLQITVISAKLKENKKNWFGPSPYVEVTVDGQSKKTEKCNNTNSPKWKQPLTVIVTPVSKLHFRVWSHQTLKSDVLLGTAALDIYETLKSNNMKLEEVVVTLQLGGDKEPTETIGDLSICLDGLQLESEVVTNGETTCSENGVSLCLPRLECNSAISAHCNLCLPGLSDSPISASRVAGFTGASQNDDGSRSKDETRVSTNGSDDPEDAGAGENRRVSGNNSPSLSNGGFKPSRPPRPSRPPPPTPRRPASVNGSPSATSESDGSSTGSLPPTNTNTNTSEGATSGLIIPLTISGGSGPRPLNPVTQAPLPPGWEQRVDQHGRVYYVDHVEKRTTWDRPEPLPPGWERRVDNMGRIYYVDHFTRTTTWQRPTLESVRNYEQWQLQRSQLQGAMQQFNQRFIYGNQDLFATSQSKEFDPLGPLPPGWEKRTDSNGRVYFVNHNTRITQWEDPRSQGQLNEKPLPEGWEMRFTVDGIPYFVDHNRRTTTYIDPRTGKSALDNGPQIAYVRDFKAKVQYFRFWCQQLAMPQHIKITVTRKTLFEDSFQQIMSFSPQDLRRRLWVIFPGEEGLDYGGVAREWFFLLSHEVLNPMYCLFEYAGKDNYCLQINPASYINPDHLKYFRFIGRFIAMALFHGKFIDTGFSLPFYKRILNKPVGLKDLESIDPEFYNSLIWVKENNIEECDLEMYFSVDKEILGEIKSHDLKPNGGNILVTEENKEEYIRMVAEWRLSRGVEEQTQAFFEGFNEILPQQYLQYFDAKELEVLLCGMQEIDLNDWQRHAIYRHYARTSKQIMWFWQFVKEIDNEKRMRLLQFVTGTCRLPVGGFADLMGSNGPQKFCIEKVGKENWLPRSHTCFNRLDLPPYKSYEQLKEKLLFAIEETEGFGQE

These are yes or no findings as the source states them, for the method shown. Binding calls can cover weak binding; strength is not graded here. Where a sequence is shown, tags or fusion partners need not be part of it.

B1: His-KLF11 TRD3 (amino acids 273–351) (domain or fragment, UniProt O14901 273-351)
chain: TPLISVSVPAPPVLCQMIPVTGQSSMLPAFLKPPPQLSVGTVRPILAQAAPAPQPVFVGPAVPQGAVMLVLPQGALPPP
In the case of B1, the binding entry is “binds”.

The record behind these values is PMC3682574.
